Data on one substance can be found in publication PMC11963299.

Amino acid sequences for entries named in this document (tags omitted).
UniProt O54791: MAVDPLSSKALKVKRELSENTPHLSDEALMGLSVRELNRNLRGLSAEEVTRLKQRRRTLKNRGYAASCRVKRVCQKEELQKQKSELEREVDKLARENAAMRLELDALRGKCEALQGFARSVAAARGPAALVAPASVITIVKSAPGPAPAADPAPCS
UniProt P97302: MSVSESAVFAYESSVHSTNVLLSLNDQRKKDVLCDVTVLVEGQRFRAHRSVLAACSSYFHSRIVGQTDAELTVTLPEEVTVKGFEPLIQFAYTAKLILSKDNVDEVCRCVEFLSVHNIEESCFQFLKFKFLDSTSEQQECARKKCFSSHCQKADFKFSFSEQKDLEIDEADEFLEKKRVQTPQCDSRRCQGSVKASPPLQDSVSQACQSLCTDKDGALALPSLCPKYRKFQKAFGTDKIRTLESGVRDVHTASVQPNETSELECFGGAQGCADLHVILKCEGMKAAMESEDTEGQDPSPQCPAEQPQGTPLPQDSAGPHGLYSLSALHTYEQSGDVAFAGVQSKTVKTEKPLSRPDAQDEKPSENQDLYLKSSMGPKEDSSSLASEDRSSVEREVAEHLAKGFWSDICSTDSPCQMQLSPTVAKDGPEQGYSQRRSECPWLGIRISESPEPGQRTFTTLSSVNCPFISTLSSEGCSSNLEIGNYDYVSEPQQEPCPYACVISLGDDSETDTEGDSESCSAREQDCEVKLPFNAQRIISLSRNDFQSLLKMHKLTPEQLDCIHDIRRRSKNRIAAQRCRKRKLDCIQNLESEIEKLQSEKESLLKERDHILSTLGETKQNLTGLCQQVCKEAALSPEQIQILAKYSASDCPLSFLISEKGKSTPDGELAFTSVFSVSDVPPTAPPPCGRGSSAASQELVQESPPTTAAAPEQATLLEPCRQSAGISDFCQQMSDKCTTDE

Results are given in words; binding and its absence hold for the method and conditions named. In cells and extracts the contact can be indirect. Here binding means that the protein was enriched with, or labelled near, the bait; the list need not be complete.

This test deals with v-maf musculoaponeurotic fibrosarcoma oncogene homolog F (MAFF) (mouse (endogenous in AML12 cells / hepatocytes)) (UniProt O54791). Nature of the test: affinity purification with mass spectrometry; IP with MAFF antibody or IgG (negative control) from hepatocytes (AML12 cells) after H/R; electrophoresis, Coomassie staining, mass spectrometry of IP-MAFF and IP-IgG.

Consider “BTB and CNC homology 1 (BACH1) (from UniProt P97302 1-739)”, for which the binding result was “binds”.
